Article PMC12145424, “Structural insights into tRNA recognition of the human FTSJ1-THADA complex” (Communications Biology, 2025)
Results are given in words; binding and its absence hold for the method and conditions named. In cells and extracts the contact can be indirect. Some entries that bind do so weakly or less than the wild type.

The chains behind the UniProt entries cited, without tags or fusion partners. Where a name states a change or a piece, a line headed by the entry shows the natural chain unless it says otherwise. A line that says so, or that is headed by a name, gives the form on record, which may keep a tag or linker.
UniProt Q6YHU6: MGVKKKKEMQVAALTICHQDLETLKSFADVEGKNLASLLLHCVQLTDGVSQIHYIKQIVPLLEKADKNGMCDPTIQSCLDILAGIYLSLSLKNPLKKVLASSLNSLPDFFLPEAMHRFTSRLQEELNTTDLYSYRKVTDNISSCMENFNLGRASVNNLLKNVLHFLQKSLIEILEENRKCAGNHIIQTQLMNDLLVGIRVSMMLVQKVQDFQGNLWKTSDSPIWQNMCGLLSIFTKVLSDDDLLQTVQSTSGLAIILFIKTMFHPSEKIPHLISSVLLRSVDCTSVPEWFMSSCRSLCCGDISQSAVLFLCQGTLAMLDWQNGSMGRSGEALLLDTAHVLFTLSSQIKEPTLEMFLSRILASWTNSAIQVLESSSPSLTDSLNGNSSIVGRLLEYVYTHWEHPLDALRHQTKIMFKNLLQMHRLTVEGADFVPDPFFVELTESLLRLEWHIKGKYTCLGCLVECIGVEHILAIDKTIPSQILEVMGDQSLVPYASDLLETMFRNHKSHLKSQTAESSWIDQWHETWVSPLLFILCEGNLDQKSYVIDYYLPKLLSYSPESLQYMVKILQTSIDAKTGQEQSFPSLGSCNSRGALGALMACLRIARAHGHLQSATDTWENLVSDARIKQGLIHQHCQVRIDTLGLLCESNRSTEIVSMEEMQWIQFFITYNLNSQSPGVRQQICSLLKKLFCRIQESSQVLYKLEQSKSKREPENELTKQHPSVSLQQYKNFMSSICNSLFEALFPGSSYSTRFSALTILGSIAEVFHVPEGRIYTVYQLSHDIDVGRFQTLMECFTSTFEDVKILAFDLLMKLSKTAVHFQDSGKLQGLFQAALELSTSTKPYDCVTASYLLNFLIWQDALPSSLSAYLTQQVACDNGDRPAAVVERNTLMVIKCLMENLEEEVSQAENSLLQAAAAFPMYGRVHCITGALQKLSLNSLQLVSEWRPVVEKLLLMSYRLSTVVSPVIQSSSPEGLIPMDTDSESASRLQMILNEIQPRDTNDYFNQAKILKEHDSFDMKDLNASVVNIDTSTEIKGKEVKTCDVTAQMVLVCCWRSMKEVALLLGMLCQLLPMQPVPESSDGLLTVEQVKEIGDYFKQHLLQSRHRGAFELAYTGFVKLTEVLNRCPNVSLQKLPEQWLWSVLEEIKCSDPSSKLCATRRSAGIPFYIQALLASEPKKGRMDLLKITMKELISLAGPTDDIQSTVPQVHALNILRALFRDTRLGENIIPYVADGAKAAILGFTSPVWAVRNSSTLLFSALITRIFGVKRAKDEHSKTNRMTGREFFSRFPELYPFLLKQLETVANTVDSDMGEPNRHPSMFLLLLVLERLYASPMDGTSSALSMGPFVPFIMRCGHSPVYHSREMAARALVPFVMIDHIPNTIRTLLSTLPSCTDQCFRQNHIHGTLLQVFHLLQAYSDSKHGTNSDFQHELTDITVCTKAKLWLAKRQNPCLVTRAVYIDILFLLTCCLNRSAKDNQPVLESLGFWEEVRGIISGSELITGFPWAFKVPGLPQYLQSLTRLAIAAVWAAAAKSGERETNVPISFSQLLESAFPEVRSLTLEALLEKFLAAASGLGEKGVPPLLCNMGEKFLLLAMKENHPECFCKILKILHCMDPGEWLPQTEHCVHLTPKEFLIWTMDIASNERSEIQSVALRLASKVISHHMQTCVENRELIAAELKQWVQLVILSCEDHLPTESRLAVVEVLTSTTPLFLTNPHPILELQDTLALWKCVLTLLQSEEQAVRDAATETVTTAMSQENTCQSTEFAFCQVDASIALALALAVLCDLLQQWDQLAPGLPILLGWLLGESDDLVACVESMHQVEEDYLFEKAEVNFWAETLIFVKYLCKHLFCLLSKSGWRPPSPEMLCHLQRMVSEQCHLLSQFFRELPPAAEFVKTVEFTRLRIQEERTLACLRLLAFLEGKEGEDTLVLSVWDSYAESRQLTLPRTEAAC
FLAG-tagged THADA Glu1225Ala mutant (Q6YHU6, form named): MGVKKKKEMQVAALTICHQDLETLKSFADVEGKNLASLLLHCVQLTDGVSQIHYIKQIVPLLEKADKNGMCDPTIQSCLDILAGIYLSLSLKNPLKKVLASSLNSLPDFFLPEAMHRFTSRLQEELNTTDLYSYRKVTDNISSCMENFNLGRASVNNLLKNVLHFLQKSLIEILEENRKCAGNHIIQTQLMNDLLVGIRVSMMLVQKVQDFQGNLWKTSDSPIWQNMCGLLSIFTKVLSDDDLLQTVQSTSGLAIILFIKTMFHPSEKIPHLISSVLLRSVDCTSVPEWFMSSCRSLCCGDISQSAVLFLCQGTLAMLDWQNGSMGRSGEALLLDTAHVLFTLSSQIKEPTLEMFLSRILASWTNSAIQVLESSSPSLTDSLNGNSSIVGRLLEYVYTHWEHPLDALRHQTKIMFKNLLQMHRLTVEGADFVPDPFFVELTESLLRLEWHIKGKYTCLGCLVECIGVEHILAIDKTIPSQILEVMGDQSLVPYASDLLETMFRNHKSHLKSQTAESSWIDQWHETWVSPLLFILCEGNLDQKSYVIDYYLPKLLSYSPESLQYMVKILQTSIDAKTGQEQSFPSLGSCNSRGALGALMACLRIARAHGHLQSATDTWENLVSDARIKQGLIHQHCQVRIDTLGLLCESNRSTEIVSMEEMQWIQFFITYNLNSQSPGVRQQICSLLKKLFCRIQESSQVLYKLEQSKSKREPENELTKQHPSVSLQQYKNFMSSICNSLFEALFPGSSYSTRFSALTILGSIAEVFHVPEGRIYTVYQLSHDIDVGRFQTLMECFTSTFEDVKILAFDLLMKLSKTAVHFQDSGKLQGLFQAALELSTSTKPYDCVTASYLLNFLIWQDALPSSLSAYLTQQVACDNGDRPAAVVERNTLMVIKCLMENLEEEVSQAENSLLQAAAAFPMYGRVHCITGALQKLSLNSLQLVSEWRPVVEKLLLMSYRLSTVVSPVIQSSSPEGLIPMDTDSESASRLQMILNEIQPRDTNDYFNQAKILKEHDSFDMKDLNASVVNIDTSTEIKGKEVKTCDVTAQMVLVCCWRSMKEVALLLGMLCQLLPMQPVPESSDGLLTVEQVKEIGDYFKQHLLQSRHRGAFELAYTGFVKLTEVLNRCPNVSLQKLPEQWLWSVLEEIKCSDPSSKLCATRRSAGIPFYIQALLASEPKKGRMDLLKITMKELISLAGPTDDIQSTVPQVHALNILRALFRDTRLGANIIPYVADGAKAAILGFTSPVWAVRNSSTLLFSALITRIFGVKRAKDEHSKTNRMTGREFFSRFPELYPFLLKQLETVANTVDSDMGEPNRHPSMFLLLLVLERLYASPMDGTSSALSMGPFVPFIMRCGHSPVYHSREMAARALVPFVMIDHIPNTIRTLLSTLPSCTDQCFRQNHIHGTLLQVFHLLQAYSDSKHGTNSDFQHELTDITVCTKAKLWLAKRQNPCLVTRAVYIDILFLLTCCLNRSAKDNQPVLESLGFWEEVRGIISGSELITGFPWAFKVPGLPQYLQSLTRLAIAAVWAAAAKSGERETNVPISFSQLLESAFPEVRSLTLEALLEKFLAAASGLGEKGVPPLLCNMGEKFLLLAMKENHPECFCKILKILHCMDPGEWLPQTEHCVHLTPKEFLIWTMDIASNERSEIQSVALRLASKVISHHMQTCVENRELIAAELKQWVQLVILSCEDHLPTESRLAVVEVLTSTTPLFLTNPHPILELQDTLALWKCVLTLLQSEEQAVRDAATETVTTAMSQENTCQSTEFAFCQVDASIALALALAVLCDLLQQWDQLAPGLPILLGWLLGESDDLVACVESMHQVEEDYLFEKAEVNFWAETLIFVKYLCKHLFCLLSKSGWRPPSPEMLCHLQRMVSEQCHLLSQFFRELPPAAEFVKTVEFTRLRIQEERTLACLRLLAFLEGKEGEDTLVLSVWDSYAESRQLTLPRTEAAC

Legend:
[1] = molecular target: FLAG-tagged THADA Glu1225Ala mutant (human) (UniProt Q6YHU6); experiment: co-IP; 293FT cells transfected with FLAG-tagged THADA; lysate in 20 mM Tris-HCl pH 7.4, 150 mM NaCl, 1 mM EDTA, 1 mM EGTA, 0.01% Triton X-100; anti-FLAG M2 affinity gel; blot with anti-FLAG and anti-FTSJ1
[2] = molecular target: FLAG-tagged THADA, wild type (293FT, immunoprecipitation) (human) (UniProt Q6YHU6); experiment: as above

binding [1]: binds
binding [2]: binds
B1: Human FTSJ1 (FLAG-tagged, co-expressed with THADA) (enzyme)
chain: MGRTSKDKRDVYYRLAKENGWRARSAFKLLQLDKEFQLFQGVTRAVDLCAAPGSWSQVLSQKIGGQGSGHVVAVDLQAMAPLPGVVQIQGDITQLSTAKEIIQHFKGCPADLVVCDGAPDVTGLHDVDEYMQAQLLLAALNIATHVLKPGGCFVAKIFRGRDVTLLYSQLQVFFSSVLCAKPRSSRNSSIEAFAVCQGYDPPEGFIPDLSKPLLDHSYDPDFNQLDGPTRIIVPFVTCGDLSSYDSDRSYPLDLEGGSEYKYTPPTQPPISPPYQEACTLKRKGQLAKEIRPQDCPISRVDTFPQPLAAPQCHTLLAPEMEDNEMSCSP
notes: FTSJ1, human; gene PCR-amplified and cloned into a modified pcDNA3.4 vector; no TEV cleavage step is described in the purification; also called Trm7 (yeast name); not shown: FLAG, N-terminal, kept
